The list shows a part of the results. Entries with a potency or affinity are not part of this list.

The subject of the assay is Pseudomonas aeruginosa. The note with it: Concentration 20 uM; ASSAY_TEST Inhibition of Bacterial Growth; detection method Absorption (OD600); MEDIA CAMHB; plate type 384well; NBS; CORNING #3640; time 18 hr.
What is called Inhibition is the relative decrease from the control value, in per cent. Regarding `CC(C)c1ccc2c(c1)c(SC(C)(C)C)c(CC(C)(C)C(=O)O)n2Cc1ccc(Cl)cc1`, the Inhibition is 7.2%.

For the molecule `CC1CC2C3CCC4=CC(=O)C=CC4(C)[C@@]3(Cl)C(O)CC2(C)C1(O)C(=O)CO` (some centres undefined), the Inhibition was determined as 10.12%.

On to `CC(Oc1c(Cl)cccc1Cl)C1=NCCN1.Cl` (centres undefined) [LOFEXIDINE HYDROCHLORIDE], for which the Inhibition is 8.67%.

Regarding `CC(C)[N+]1(C)C2CCC1CC(OC(=O)C(CO)c1ccccc1)C2.[Br-]` (centres undefined), the Inhibition is recorded as 9.29%.

For `Nc1ccn([C@@H]2CS[C@H](CO)O2)c(=O)n1` [LAMIVUDINE], the Inhibition was found to be 10.87%.

Turning to `COc1ccccc1OCC(O)COC(N)=O` (centres undefined) [METHOCARBAMOL], the Inhibition is 19.81%.

With `Cl.Clc1cccc(Cl)c1NC1=NCCN1` [CLONIDINE HYDROCHLORIDE], the Inhibition turned out to be 37.06%.

Turning to `COc1ccc([C@@H]2Sc3ccccc3N(CCN(C)C)C(=O)[C@@H]2OC(C)=O)cc1.Cl` [DILTIAZEM HYDROCHLORIDE], the Inhibition amounted to 6.94%.

As to `C[C@H]1C[C@@H]2[C@H]([C@@H](O)C[C@@]3(C)[C@H]2CC[C@]3(O)C(=O)CO)[C@@]2(C)C=CC(=O)C=C12` [METHYLPREDNISOLONE], the Inhibition was 16.45%.

As to `CC(COc1ccccc1Cc1ccccc1)N1CCCCC1.O=P(O)(O)O` (centres undefined), the Inhibition came out at 11.13%.

As for `C=C1/C(=C\C=C2/CCC[C@]3(C)[C@@H]([C@H](C)CCCC(C)(C)O)CC[C@@H]23)C[C@@H](O)C[C@@H]1O` [CALCITRIOL], the Inhibition amounted to 19.82%.

In the case of `CC[C@@H]1C(=O)OC[C@@H]1Cc1cncn1C.Cl` [PILOCARPINE HYDROCHLORIDE], the Inhibition was 13.04%.

Regarding `CCC(=O)OCC(=O)[C@@]1(OC(=O)CC)[C@@H](C)C[C@H]2[C@@H]3CCC4=CC(=O)C=C[C@]4(C)[C@@]3(Cl)[C@@H](O)C[C@@]21C` [BECLOMETHASONE DIPROPIONATE], the Inhibition turned out to be 2.46%.

On to `C#C[C@]1(O)CC[C@H]2[C@@H]3CCC4=Cc5oncc5C[C@]4(C)[C@H]3CC[C@@]21C` [DANAZOL], for which the Inhibition was determined as 3.85%.

Regarding `O=C1CCC(N2C(=O)c3ccccc3C2=O)C(=O)N1` (centres undefined) [THALIDOMIDE], the Inhibition is 8.64%.

`CN(C)C(=O)Oc1ccc[n+](C)c1.[Br-]` [PYRIDOSTIGMINE BROMIDE]: the Inhibition was 13.06%.

Take `Cc1cccc(Nc2ccccc2C(=O)O)c1C` [MEFENAMIC ACID]: the Inhibition is reported as 13.19%.

With `CC(=O)OCC(=O)[C@@]12OC(C)(C)O[C@@H]1C[C@H]1[C@@H]3C[C@H](F)C4=CC(=O)C=C[C@]4(C)[C@@]3(F)[C@@H](O)C[C@@]12C` [FLUOCINONIDE], the Inhibition amounted to 6.76%.

As to `CC(C)NCC(O)c1cc(O)cc(O)c1` (centres undefined) [METAPROTERENOL], the Inhibition came out at 4.84%.

With `CC[C@H]1OC(=O)[C@H](C)C(=O)[C@H](C)[C@@H](O[C@@H]2O[C@H](C)C[C@H](N(C)C)[C@H]2O)[C@](C)(OC)C[C@@H](C)C(=O)[C@H](C)[C@@H]2N(CCCCn3cnc(-c4cccnc4)c3)C(=O)O[C@@]21C`, the Inhibition stood at 3.63%.

In the case of `Cn1cnc([N+](=O)[O-])c1Sc1ncnc2[nH]cnc12` [AZATHIOPRINE], the Inhibition came to 22.34%.

`OCCN1C[C@H](O)[C@@H](O)[C@H](O)[C@H]1CO` [MIGLITOL]: the Inhibition is 23.8%.

Turning to `COC(=O)C1=C(C)NC(C)=C(C(=O)OC(C)C)C1c1cccc2nonc12` (centres undefined) [ISRADIPINE], the Inhibition was 14.96%.

With `CC(=O)SCC(Cc1ccccc1)C(=O)NCC(=O)OCc1ccccc1` (centres undefined) [RACECADOTRIL], the Inhibition came out at 11.06%.

Consider `CN1CCc2cc(Cl)c(O)cc2[C@@H](c2ccccc2)C1.Cl`, for which the Inhibition is listed as 17.85%.

For `Nc1nc(O)c2ncn(CCC(CO)CO)c2n1` [PENCICLOVIR], the Inhibition is 16.28%.

Regarding `CC[C@H](C)C(=O)O[C@H]1C[C@H](O)C=C2C=C[C@H](C)[C@H](CC[C@@H](O)C[C@@H](O)CC(=O)[O-])[C@H]21.[Na+]` [PRAVASTATIN SODIUM], the Inhibition is recorded as 24.13%.

As to `Br.Br.O=C1CC2(CCCC2)CC(=O)N1CCNCC1COc2ccccc2O1` (centres undefined), the Inhibition was found to be 13.7%.

With `C[C@]12CCC(=O)C=C1CC[C@@H]1[C@@H]2[C@@H](O)C[C@@]2(C)[C@H]1CC[C@]2(O)C(=O)CO` [HYDROCORTISONE], the Inhibition was determined as 10.83%.

For the molecule `O.OC[C@H]1O[C@@H](n2cnc3c(NC4CCCC4)nc(Cl)nc32)[C@@H](O)C1O` (some centres undefined), the Inhibition is reported as 10.94%.

Turning to `CCN1CCC[C@H]1CNC(=O)c1c(O)c(Cl)cc(Cl)c1OC` [RACLOPRIDE], the Inhibition was found to be 11.03%.

For the molecule `CSc1ccc2c(c1)N(CCC1CCCCN1C)c1ccccc1S2.Cl` (centres undefined) [THIORIDAZINE HYDROCHLORIDE], the Inhibition came out at 9.76%.

Turning to `CCCCC[C@H](O)/C=C/[C@H]1[C@H](O)CC(=O)[C@@H]1CCCCCCC(=O)O` [ALPROSTADIL], the Inhibition was found to be 6.38%.

On to `CC(C)Cc1ccc(C(C)C(=O)O)cc1` (centres undefined) [IBUPROFEN], for which the Inhibition turned out to be 12.43%.

`COC(=O)CCc1ccc(OCC(O)CNC(C)C)cc1.Cl` (centres undefined) [ESMOLOL HYDROCHLORIDE]: the Inhibition is recorded as 7.89%.

As for `Br.CN(C)CCCC1(c2ccc(F)cc2)OCc2cc(C#N)ccc21` (centres undefined) [CITALOPRAM HYDROBROMIDE], the Inhibition was determined as 20.74%.

As for `O=C1[C@H](CC[C@H](O)c2ccc(F)cc2)[C@@H](c2ccc(O)cc2)N1c1ccc(F)cc1` [EZETIMIBE], the Inhibition is 24.27%.

In the case of `CN(C)CCN(Cc1ccccc1)c1ccccn1.Cl` [TRIPELENNAMINE HYDROCHLORIDE], the Inhibition was 4.49%.

Turning to `Cc1cnc(C(=O)NCCc2ccc(S(=O)(=O)NC(=O)NC3CCCCC3)cc2)cn1` [GLIPIZIDE], the Inhibition is recorded as 16.96%.

For the molecule `O=C(O)COCCN1CCN([C@H](c2ccccc2)c2ccc(Cl)cc2)CC1` [LEVOCETIRIZINE], the Inhibition is given as 6.8%.

For the molecule `CN(C)CC[C@@H](c1ccc(Br)cc1)c1ccccn1.O=C(O)/C=C\C(=O)O` [DEXBROMPHENIRAMINE MALEATE], the Inhibition is listed as 6.71%.

As to `CCCN1CCCC[C@H]1C(=O)Nc1c(C)cccc1C.Cl` [ROPIVACAINE HYDROCHLORIDE], the Inhibition was determined as 18.3%.

As for `CN(C/C=C/C#CC(C)(C)C)Cc1cccc2ccccc12.Cl` [TERBINAFINE HYDROCHLORIDE], the Inhibition was 9.15%.

Take `COC(=O)C1=C(C)NC(C)=C(C(=O)OCC(C)C)C1c1ccccc1[N+](=O)[O-]` (centres undefined) [NISOLDIPINE]: the Inhibition worked out at 32.31%.

With `C#C[C@]1(O)CC[C@H]2[C@@H]3CCc4cc(OC)ccc4[C@H]3CC[C@@]21C` [MESTRANOL], the Inhibition is given as 11.86%.

With `COc1cc([C@@H]2c3cc4c(cc3[C@@H](O[C@@H]3O[C@@H]5CO[C@@H](C)O[C@H]5[C@H](O)[C@H]3O)[C@H]3COC(=O)[C@H]23)OCO4)cc(OC)c1O` [ETOPOSIDE], the Inhibition was determined as 3.25%.

For the molecule `O=C1CCc2ccc(OCCCCN3CCN(c4cccc(Cl)c4Cl)CC3)cc2N1` [ARIPIPRAZOLE], the Inhibition was 14.8%.

For `Cl.O.O=C(c1ccc(F)cc1)C1CCN(CCn2c(=S)[nH]c3ccccc3c2=O)CC1`, the Inhibition is recorded as -10.55%.

Consider `COc1ccc2[nH]c([S+]([O-])Cc3ncc(C)c(OC)c3C)nc2c1` (centres undefined) [OMEPRAZOLE], for which the Inhibition turned out to be 9.59%.

`CN(CCOc1ccc(CC2SC(=O)NC2=O)cc1)c1ccccn1.O=C(O)/C=C\C(=O)O` (centres undefined) [ROSIGLITAZONE MALEATE]: the Inhibition is listed as 11.6%.

For `CCN(CC)C(=O)[C@]1(c2ccccc2)C[C@@H]1CN.Cl` [1R,2S-MILNACIPRAN HYDROCHLORIDE], the Inhibition was 7.22%.

With `CCc1cccc2c3c([nH]c12)C(CC)(CC(=O)O)OCC3` (centres undefined) [ETODOLAC], the Inhibition is recorded as -2.53%.

As for `CC1=C(CC(=O)O)c2cc(F)ccc2/C1=C\c1ccc([S+](C)[O-])cc1` (centres undefined), the Inhibition was determined as 6.36%.

Regarding `Cl.NC1CCN(c2cccc(Cl)n2)CC1`, the Inhibition amounted to 7.45%.

With `CNCCCN1c2ccccc2CCc2ccccc21.Cl` [DESIPRAMINE HYDROCHLORIDE], the Inhibition was found to be 6.47%.

`Cl.O=c1n(CCCN2CCN(c3cccc(Cl)c3)CC2)nc2ccccn12` [TRAZODONE HYDROCHLORIDE]: the Inhibition came out at 14.2%.

With `N=c1cc(N2CCCCC2)nc(N)n1O`, the Inhibition was 11.03%.

Take `COc1ccc(CN2CCN(C(c3ccc(F)cc3)c3ccc(F)cc3)CC2)c(OC)c1OC.Cl.Cl`: the Inhibition is on record as 6.79%.

`CCC1=C(C)CN(C(=O)NCCc2ccc(S(=O)(=O)NC(=O)N[C@H]3CC[C@H](C)CC3)cc2)C1=O` [GLIMEPIRIDE]: the Inhibition was determined as 13.41%.

As to `CCS(=O)(=O)CCn1c([N+](=O)[O-])cnc1C` [TINIDAZOLE], the Inhibition amounted to 18.84%.

Take `CC(=O)Nc1ccc(CC(=O)O)cc1` [ACTARIT]: the Inhibition is recorded as -13.14%.

As for `Cc1nc2n(c(=O)c1CCN1CCC(c3noc4cc(F)ccc34)CC1)CCCC2` [RISPERIDONE], the Inhibition came to 4.12%.

As for `OCc1cc(C(O)CNCCCCCCOCCCCc2ccccc2)ccc1O` (centres undefined) [SALMETEROL], the Inhibition is recorded as 18.07%.

Regarding `CCOC(=O)OC(C)OC1=C(C(=O)Nc2ccccn2)N(C)S(=O)(=O)c2ccccc21` (centres undefined) [AMPIROXICAM], the Inhibition was determined as 53.02%.

As to `O=C(O)c1cc(-c2ccc(F)cc2F)ccc1O` [DIFLUNISAL], the Inhibition is 7.67%.

As to `CCCCNC(=O)NS(=O)(=O)c1ccc(C)cc1` [TOLBUTAMIDE], the Inhibition is 8.36%.

With `CN1CCN(CCCN2c3ccccc3Sc3ccc(Cl)cc32)CC1.O=C(O)/C=C\C(=O)O.O=C(O)/C=C\C(=O)O` [PROCHLORPERAZINE MALEATE], the Inhibition stood at 14.71%.

Consider `c1ccc2[nH]c(-c3cscn3)nc2c1` [THIABENDAZOLE], for which the Inhibition is reported as 16.13%.

Consider `COc1cc(C(=O)NC2CCCNC2)cc(OC)c1OC` (centres undefined) [TROXIPIDE], for which the Inhibition was determined as 16.64%.

For the origin of these results see ChEMBL document CHEMBL4513141, “CO-ADD screening of NIH (USA) - Clinical Collection” (2021).
